Results: the supplement of paper PMC12067093, “Discovery and optimisation of a covalent ligand for TRIM25 and its application to targeted protein ubiquitination” (Chemical Science, 2025)
The list shows a part of the results.

compound: CC1Cc2ccccc2N1C(=O)C1CCCN(C1)C(=O)CCl (mixture of isomers) [TRIM25 ligand 11 (diastereomer mixture)]; assay: probe-labelled cysteine peptide fold change vs DMSO (competition) (log2 fold change); higher = less target engagement (more negative = stronger competition); settings: 50 µM; THP-1; incubation time: 4 h
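Also: competitive chemoproteomic profiling in live THP-1 cells with an iodoacetamide desthiobiotin (IA-DTB) probe, comparing probe-labelled peptide intensities in compound-treated cells against DMSO-treated controls.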

Row | Target | probe-labelled cysteine peptide fold change
1 | EIF3M_Q7L2H7_52_GAEISEENSEGGLHVDLAQIIEACDVCLK (UniProt Q7L2H7) | -0.0209
2 | EML4_Q9HC35_820_VHLFQYPCSK (UniProt Q9HC35) | -0.0256
3 | ERAP1_Q9NZ08_907_CVQQTIETIEENIGWMDK (UniProt Q9NZ08) | -0.0636
4 | ELP5_Q8TE02_151_LPCTTLCQVLHAVSHQDSCPGDSSSVGK (UniProt Q8TE02) | 0.114
5 | ERAP1_Q9NZ08_743_SQLLLLACVHNYQPCVQR (UniProt Q9NZ08) | 0.26
6 | EIF4G3_O43432_928+930_NHDEESLECLCR (UniProt O43432) | -0.0352
7 | EML4_Q9HC35_428_TTNEVVLAVEFHPTDANTIITCGK (UniProt Q9HC35) | -0.0016
8 | EIF4B_P23588_457_SLENETLNKEEDCHSPTSKPPKPDQPLK (UniProt P23588) | -0.0876
9 | EP400_Q96L91_879_EIECFWSNIEQVVEIK (UniProt Q96L91) | -0.0992
10 | EPM2AIP1_Q7L775_465_IFDPDRYQMVICR (UniProt Q7L775) | -0.227
11 | ENOPH1_Q9UHY7_202_KIADSIGCSTNNILFLTDVTR (UniProt Q9UHY7) | -0.405
12 | EML3_Q32P44_310_CLAVHPDGVR (UniProt Q32P44) | 0.0339
13 | EPB41L2_O43491_424_LGVCANGLLIYK (UniProt O43491) | 0.0374
14 | EIF4B_P23588_457_EEDCHSPTSKPPKPDQPLK (UniProt P23588) | -0.106
15 | ELF2_Q15723_348_NSSPINCSR (UniProt Q15723) | -0.156
16 | ELAC2_Q9BQ52_670_VVYSGDTMPCEALVR (UniProt Q9BQ52) | -0.0613
17 | ENG_P17813_516_GNCVSLLSPSPEGDPR (UniProt P17813) | -0.204
18 | EIF5B_O60841_635_LRAPIICVLGHVDTGK (UniProt O60841) | 0.00731

Row | Target | probe-labelled cysteine peptide fold change
19 | EPB41L1_Q9H4G0_111_VTLLDASEYECEVEK (UniProt Q9H4G0) | 0.0483
20 | ENO1_P06733_337_SCNCLLLK (UniProt P06733) | 0.0457
21 | ELF2_Q15723_110_TIEAAEALLHMESPTCLR (UniProt Q15723) | -0.346
22 | EPRS_P07814_92_LSSCDSFTSTINELNHCLSLR (UniProt P07814) | -0.0304
23 | EIF4G3_O43432_928_NHDEESLECLCR (UniProt O43432) | 0.171
24 | EML2_O95834_395_AQFVTCGQDK (UniProt O95834) | -0.00802
25 | ELAC1_Q9H777_266_LCFEADLLIHEATLDDAQMDK (UniProt Q9H777) | 0.0139
26 | EMG1_Q92979_134_FCGLMVQLLHK (UniProt Q92979) | 0.097
27 | ELF2_Q15723_591_TEGLVTCEK (UniProt Q15723) | -0.271
28 | EIF3M_Q7L2H7_175_LLYEALVDCK (UniProt Q7L2H7) | 0.226
29 | EIF5A2_Q9GZV4_22_ADEIDFTTGDAGASSTYPMQCSALRK (UniProt Q9GZV4) | -0.216
30 | EPRS_P07814_105_LSSCDSFTSTINELNHCLSLR (UniProt P07814) | 0.288
31 | ELP1_O95163_744_EAFECMR (UniProt O95163) | 0.141
32 | EIPR1_Q53HC9_95_VLTCAAVWR (UniProt Q53HC9) | 0.137
33 | ELANE_P08246_254_SEDNPCPHPRDPDPASR (UniProt P08246) | -0.14
34 | ENOSF1_Q7L5Y1_330_ALQFLQIDSCR (UniProt Q7L5Y1) | 0.0321
35 | EPS15_P42566_824_EKDPEIFCDPFTSATTTTNK (UniProt P42566) | -0.355
36 | ELP2_Q6IA86_14_VAPVLETSHVFCCPNR (UniProt Q6IA86) | 0.118

For convenience, part of the list above.
Row | Target | probe-labelled cysteine peptide fold change
31 | ELP1_O95163_744_EAFECMR (UniProt O95163) | 0.141
32 | EIPR1_Q53HC9_95_VLTCAAVWR (UniProt Q53HC9) | 0.137
33 | ELANE_P08246_254_SEDNPCPHPRDPDPASR (UniProt P08246) | -0.14
